Counter-ions that a name gives are not always drawn. Some of the results follow. Most values lie at the level of the controls, where differences are scatter.
The molecules below were run on hPSC-derived cortical neurons (WA09) (assay: nucleus roundness z-score vs screen plate; higher = rounder nuclei (more mature)). Details: 5 µM; treatment: days 7-14 after plating, readout day 21.

| SMILES | nucleus roundness z-score |
| --- | --- |
| CC(C)NC[C@H](O)COc1ccc(CCOCC2CC2)cc1 [Levobetaxolol HCl] | -0.175 |
| O=C(NC1CCN(CCCCC2(C(=O)NCC(F)(F)F)c3ccccc3-c3ccccc32)CC1)c1ccccc1-c1ccc(C(F)(F)F)cc1 [Lomitapide] | 0.802 |
| COc1cc(C(C)=O)ccc1O [Apocynin] | 0.157 |
| c1ccc2c(Oc3nc(Nc4ccc(N5CCOCC5)cc4)c4ncn(C5CCCCC5)c4n3)cccc2c1 [Purmorphamine] | -1.08 |
| COc1cccc(Nc2c(C(N)=O)cnc3c(C)cc(S(=O)(=O)c4cccc(C(=O)N(C)C)c4)cc23)c1 | 0.114 |
| Cc1ncc(-c2ccnc(Nc3ccc(S(C)(=O)=O)cc3)n2)n1C(C)C | -1.42 |
| CCC(C)(Oc1ccc(C2(c3ccc(OC(C)(CC)C(=O)O)cc3)CCCCC2)cc1)C(=O)O (stereo not given) [Clinofibrate] | 1.12 |
| C[C@H](CCC(=O)O)[C@H]1CC[C@H]2[C@@H]3C(=O)C[C@@H]4CC(=O)CC[C@]4(C)[C@H]3CC(=O)[C@]12C [Dehydrocholic acid] | 0.321 |
| CC1=C(/C=C/C(C)=C/C=C/C(C)=C\C(=O)O)C(C)(C)CCC1 [Isotretinoin] | 0.172 |
| Cc1ccsc1C(=CCCN1CCC[C@@H](C(=O)O)C1)c1sccc1C [Tiagabine hydrochloride] | -0.428 |
| C#C[C@]1(O)CC[C@H]2[C@@H]3CCc4cc(O)ccc4[C@H]3CC[C@@]21C [Ethinyl Estradiol] | 1.1 |
| O=C(Nc1c(Cl)cncc1Cl)c1ccc(OC(F)F)c(OCC2CC2)c1 [Roflumilast] | -0.0255 |
| O=C(/C=C/c1cccc(S(=O)(=O)Nc2ccccc2)c1)NO [Belinostat (PXD101)] | -6.42 |
| O=C1[C@H](Cc2ccc(O)cc2)N2C(=O)CCN(C(=O)NCc3ccccc3)[C@H]2CN1Cc1cccc2ccccc12 | -0.433 |
| Cn1c(=O)c2c(ncn2CC2OCCO2)n(C)c1=O [Doxofylline] | -1.02 |
| OC[C@@H](O)[C@@H](O)[C@@H](O)CO [Ribitol] | 0.143 |
| CNC(=O)c1ccc2cc([C@@]3(O)CCn4cncc43)ccc2c1 [TAK-700 (Orteronel)] | -0.635 |
| Cc1cc(-c2ccc(CC(=O)Nc3ccc(-c4cccnc4)cc3)cc2)ccn1 | -0.945 |

Some values from the entries so far.
Cn1c(=O)c2c(ncn2CC2OCCO2)n(C)c1=O [Doxofylline] – nucleus roundness z-score: -1.02
O=C1[C@H](Cc2ccc(O)cc2)N2C(=O)CCN(C(=O)NCc3ccccc3)[C@H]2CN1Cc1cccc2ccccc12 – nucleus roundness z-score: -0.433

The list goes on:

| SMILES | nucleus roundness z-score |
| --- | --- |
| Cc1ccc(Nc2nccc(N(C)c3ccc4c(C)n(C)nc4c3)n2)cc1S(N)(=O)=O [Pazopanib] | -0.0634 |
| CC(C)C[C@H](NC(=O)[C@H](Cc1ccccc1)C[C@@H](O)[C@H](Cc1ccccc1)NC(=O)OC(C)(C)C)C(=O)N[C@@H](Cc1ccccc1)C(N)=O | 1.33 |
| Nc1nc(OCc2cc(Br)cs2)c2[nH]cnc2n1 [Lomeguatrib] | -0.688 |
| O=C(O)CCCCC(CCSCc1ccccc1)SCc1ccccc1 (stereo not given) | 0.357 |
| Cc1ccc(Sc2ccccc2N2CCNCC2)c(C)c1 | -1.08 |
| CS(=O)(=O)c1ccc([C@@H](O)[C@@H](CF)NC(=O)C(Cl)Cl)cc1 [Florfenicol] | -0.00376 |
| Cc1c(-c2ccnn2C)cc(C(=O)NCc2ccc(S(C)(=O)=O)cn2)c(=O)n1-c1cccc(C(F)(F)F)c1 [Alvelestat (AZD9668)] | 1.33 |
| Cc1onc(-c2ccccc2Cl)c1C(=O)N[C@@H]1C(=O)N2[C@@H]1SC(C)(C)[C@@H]2C(=O)O [Cloxacillin Sodium] | 0.661 |
| CCCc1cc(C(N)=S)ccn1 [Protionamide] | -0.26 |
| C=CCNC(N)=S [Allylthiourea] | 0.662 |
| CC[C@H](C)C(=O)O[C@H]1C[C@@H](C)C=C2C=C[C@H](C)[C@H](CC[C@@H]3C[C@@H](O)CC(=O)O3)[C@H]21 [Lovastatin] | 1.4 |
| COc1cc2c(cc1O)CC[C@@H]1[C@@H]2CC[C@]2(C)[C@@H](O)CC[C@@H]12 [2-Methoxyestradiol (2-MeOE2)] | -0.801 |
| c1cncc(CN2CCC(n3ncc4c(N5CCOCC5)nc(-c5ccc6[nH]ccc6c5)nc43)CC2)c1 | -1.17 |
| Clc1ccc(CSC(Cn2ccnc2)c2ccc(Cl)cc2Cl)cc1 (stereo not given) [Sulconazole Nitrate] | -1.52 |
| Cc1c(OCC(F)(F)F)ccnc1C[S@@+]([O-])c1nc2ccccc2[nH]1 [Dexlansoprazole] | 0.486 |
| Cc1ccccc1C(=O)Nc1ccc(C(=O)N2CCCC(O)c3cc(Cl)ccc32)c(C)c1 (stereo not given) [Tolvaptan] | -0.125 |
| C[N+](C)(C)CCOC(=O)CCC(=O)OCC[N+](C)(C)C [Succinylcholine Chloride Dihydrate] | 0.804 |
